Results deposited as PubChem BioAssay AID1259254 (NCATS, 2017).
In all, the deposit lists about 59,000 reagents; shown is a random part of them. About 1,550 of all reagents (2.6%) count as active. 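G2 share is only a proxy for re-replication; each gene was hit by three separate siRNAs, and active genes were retested.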 Raw values are not corrected between plates. Reagents against one gene are numbered here. Reagent sequences are not shown. Not given: the amount of reagent.

- Purpose: 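Finding genes that stop cells copying their DNA twice in one cycle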 (primary screen)
- Cell system: human HCT116 colorectal cancer cells
- Reagent: single siRNA against human genes
- Timing: 3 days
- Measurement: 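Nuclei stained with Hoechst and imaged; cell-cycle phase assigned by DNA content; G2 share scaled per plate, non-targeting siRNA 0%, GMNN siRNA 100%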
- Scale: G2 robust z-score and G2 cells, % of GMNN control: higher = more G2 cells, more excess DNA replication; raw share of cells in G2: higher = larger share of cells with G2 DNA content
- Active means: 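Active siRNAs have a G2 robust z of 5 or more median absolute deviations over the median, which in these data means about 38% or higher of GMNN control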

target,reagent no.,G2 robust z-score,"G2 cells, % of GMNN control",raw share of cells in G2 (%),Outcome
ARHGEF28 (Rho guanine nucleotide exchange factor 28),1,-0.492,-0.493,4.37,inactive
ARHGEF28 (Rho guanine nucleotide exchange factor 28),2,0.359,5.49,7.07,inactive
ARHGEF28 (Rho guanine nucleotide exchange factor 28),3,-0.296,0.885,2.93,inactive
SLC39A7,1,2.54,20.8,14.4,inactive
SLC39A7,2,6.32,47.4,20.1,active
SLC39A7,3,0.289,5,6.12,inactive
"ABL2 (ABL proto-oncogene 2, non-receptor tyrosine kinase)",1,1.22,11.6,9.43,inactive
"ABL2 (ABL proto-oncogene 2, non-receptor tyrosine kinase)",2,0.873,9.11,8.48,inactive
"ABL2 (ABL proto-oncogene 2, non-receptor tyrosine kinase)",3,-0.954,-3.75,2.7,inactive
TBC1D2 (TBC1 domain family member 2),1,-0.0389,2.69,5.56,inactive
TBC1D2 (TBC1 domain family member 2),2,1.05,10.4,8.44,inactive
TBC1D2 (TBC1 domain family member 2),3,-0.198,1.58,3.64,inactive
PTN (pleiotrophin),1,-0.255,1.17,5.13,inactive
PTN (pleiotrophin),2,1.12,10.9,8.72,inactive
PTN (pleiotrophin),3,1.35,12.4,8.28,inactive
ZBP1 (Z-DNA binding protein 1),1,-0.746,-2.28,3.5,inactive
ZBP1 (Z-DNA binding protein 1),2,0.253,4.75,6.38,inactive
ZBP1 (Z-DNA binding protein 1),3,-0.0545,2.58,3.08,inactive
LOC729268 (retired record),1,-0.909,-3.43,1.77,inactive
LOC729268 (retired record),2,-0.675,-1.78,3.24,inactive
LOC729268 (retired record),3,-0.947,-3.7,2.12,inactive
PPBPP1 (pro-platelet basic protein pseudogene 1),1,0.837,8.86,6.9,inactive
PPBPP1 (pro-platelet basic protein pseudogene 1),2,-0.894,-3.33,1.7,inactive
PPBPP1 (pro-platelet basic protein pseudogene 1),3,-0.625,-1.43,3.06,inactive
EIF3J (eukaryotic translation initiation factor 3 subunit J),1,-0.552,-0.917,4.12,inactive
EIF3J (eukaryotic translation initiation factor 3 subunit J),2,0.558,6.89,7.68,inactive
EIF3J (eukaryotic translation initiation factor 3 subunit J),3,0.828,8.79,7.86,inactive
TUBGCP5 (tubulin gamma complex component 5),1,0.189,4.3,5.81,inactive
TUBGCP5 (tubulin gamma complex component 5),2,0.156,4.06,4.54,inactive
TUBGCP5 (tubulin gamma complex component 5),3,-0.457,-0.249,1.75,inactive
CDH1 (cadherin 1),1,-0.561,-0.978,4.61,inactive
CDH1 (cadherin 1),2,0.836,8.85,8.23,inactive
CDH1 (cadherin 1),3,0.273,4.89,5.78,inactive
DBX2 (developing brain homeobox 2),1,0.209,4.43,6.69,inactive
DBX2 (developing brain homeobox 2),2,-0.177,1.72,6.65,inactive
DBX2 (developing brain homeobox 2),3,1.16,11.1,8.35,inactive
TMEM88 (transmembrane protein 88),1,0.622,7.35,7.2,inactive
TMEM88 (transmembrane protein 88),2,-0.0374,2.7,3.85,inactive
TMEM88 (transmembrane protein 88),3,3.74,29.3,12.2,inactive
RIMKLA (ribosomal modification protein rimK like family member A),1,-0.601,-1.26,3.18,inactive
RIMKLA (ribosomal modification protein rimK like family member A),2,-0.291,0.918,3.4,inactive
RIMKLA (ribosomal modification protein rimK like family member A),3,1.26,11.9,6.87,inactive
ZDHHC5 (zDHHC palmitoyltransferase 5),1,-0.272,1.06,4.34,inactive
ZDHHC5 (zDHHC palmitoyltransferase 5),2,4.11,31.9,14.8,inactive
ZDHHC5 (zDHHC palmitoyltransferase 5),3,-0.369,0.369,6.33,inactive
GPR34 (G protein-coupled receptor 34),1,0.91,9.37,9.19,inactive
GPR34 (G protein-coupled receptor 34),2,0.885,9.19,7.73,inactive
GPR34 (G protein-coupled receptor 34),3,2.64,21.6,9.88,inactive
SLC26A3,1,0.172,4.17,5.53,inactive
SLC26A3,2,-0.0243,2.8,6.01,inactive
SLC26A3,3,1.07,10.5,8.7,inactive
PEMT (phosphatidylethanolamine N-methyltransferase),1,-0.155,1.88,7.22,inactive
PEMT (phosphatidylethanolamine N-methyltransferase),2,-1.15,-5.14,2.18,inactive
PEMT (phosphatidylethanolamine N-methyltransferase),3,0.441,6.07,8.33,inactive
KLRC2 (killer cell lectin like receptor C2),1,-1.2,-5.46,3.06,inactive
KLRC2 (killer cell lectin like receptor C2),2,12.7,92.1,40.8,active
KLRC2 (killer cell lectin like receptor C2),3,-0.222,1.4,4.72,inactive
STX7 (syntaxin 7),1,0.285,4.97,5.18,inactive
STX7 (syntaxin 7),2,-0.217,1.44,6.63,inactive
STX7 (syntaxin 7),3,-0.104,2.24,4.28,inactive
CTNND2 (catenin delta 2),1,-0.321,0.712,5.22,inactive
CTNND2 (catenin delta 2),2,1.15,11.1,9.03,inactive
CTNND2 (catenin delta 2),3,1.18,11.3,7.97,inactive
PLRG1 (pleiotropic regulator 1),1,-0.29,0.929,5.37,inactive
PLRG1 (pleiotropic regulator 1),2,-0.116,2.15,5.07,inactive
PLRG1 (pleiotropic regulator 1),3,0.434,6.02,5.53,inactive
NTRK1 (neurotrophic receptor tyrosine kinase 1),1,0.264,4.82,7.04,inactive
NTRK1 (neurotrophic receptor tyrosine kinase 1),2,-0.369,0.373,5.73,inactive
NTRK1 (neurotrophic receptor tyrosine kinase 1),3,-1.04,-4.33,2.5,inactive

8 entries from above, showing only “G2 robust z-score”:
ABL2 (ABL proto-oncogene 2, non-receptor tyrosine kinase) #2: 0.873
ABL2 (ABL proto-oncogene 2, non-receptor tyrosine kinase) #3: -0.954
TBC1D2 (TBC1 domain family member 2) #1: -0.0389
TBC1D2 (TBC1 domain family member 2) #2: 1.05
TBC1D2 (TBC1 domain family member 2) #3: -0.198
PTN (pleiotrophin) #1: -0.255
PTN (pleiotrophin) #2: 1.12
PTN (pleiotrophin) #3: 1.35
